One assay deals with HOIP (residues 854–1072) (UniProt Q96EP0). As to the kind of experiment: AUC; sedimentation velocity, 42,000 rpm, 20 °C, c(s) distribution (SEDFIT); mixtures of HOIP RING2-LDD with STK4 KD at molar ratios 1:1 or 1:5; both purified.
The target in another assay is HOIP (residues 697–852) (UniProt Q96EP0). Description: SEC; each protein alone and the mixture at matched concentrations on Superdex 200 Increase 10/300 GL or Superdex 75 Increase 10/300 GL; a forward shift or increase of the peak read qualitatively; fractions on SDS-PAGE (Fig. 1c: 20 μM HOIP RING2-LDD, 30 μM STK4 KD, Superdex 75 Increase); both purified.
Another assay deals with HOIP (residues 697–1072) (UniProt Q96EP0). The description is as above.

Protein sequences, listed by entry. Tags and fused reporters are not part of them. Residues count along the entry.
HOIP (residues 697–1072) (Q96EP0, residues 697-1072): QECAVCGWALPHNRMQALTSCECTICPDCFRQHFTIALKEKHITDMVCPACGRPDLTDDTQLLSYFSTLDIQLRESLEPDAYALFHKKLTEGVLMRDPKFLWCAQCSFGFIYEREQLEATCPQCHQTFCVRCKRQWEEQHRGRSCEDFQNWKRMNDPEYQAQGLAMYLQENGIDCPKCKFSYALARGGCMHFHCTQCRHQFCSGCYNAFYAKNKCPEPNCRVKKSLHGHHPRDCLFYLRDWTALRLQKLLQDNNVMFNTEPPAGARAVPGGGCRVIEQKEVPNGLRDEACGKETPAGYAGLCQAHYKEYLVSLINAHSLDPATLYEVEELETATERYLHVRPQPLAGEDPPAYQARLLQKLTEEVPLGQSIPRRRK
HOIP (residues 697–852) (Q96EP0, residues 697-852): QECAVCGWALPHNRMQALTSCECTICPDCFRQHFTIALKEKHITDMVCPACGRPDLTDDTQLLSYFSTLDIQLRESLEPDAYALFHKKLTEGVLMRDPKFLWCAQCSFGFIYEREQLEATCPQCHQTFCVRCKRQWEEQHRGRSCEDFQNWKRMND
HOIP (residues 854–1072) (Q96EP0, residues 854-1072): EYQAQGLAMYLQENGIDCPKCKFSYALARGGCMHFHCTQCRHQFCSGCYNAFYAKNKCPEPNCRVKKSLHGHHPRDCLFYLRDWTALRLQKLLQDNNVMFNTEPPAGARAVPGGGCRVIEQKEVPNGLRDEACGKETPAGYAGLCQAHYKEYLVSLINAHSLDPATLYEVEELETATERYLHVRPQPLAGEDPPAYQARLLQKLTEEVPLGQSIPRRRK

No constants are given. Whether binding was seen depends on the method and setting. Some results given as binding are weak or reduced against the parent protein; the word gives no strength.

B1: STK4 (residues 11–326) K59R (domain or fragment, UniProt Q13043 11-326)
chain: RRQLKKLDEDSLTKQPEEVFDVLEKLGEGSYGSVYKAIHKETGQIVAIRQVPVESDLQEIIKEISIMQQCDSPHVVKYYGSYFKNTDLWIVMEYCGAGSVSDIIRLRNKTLTEDEIATILQSTLKGLEYLHFMRKIHRDIKAGNILLNTEGHAKLADFGVAGQLTDTMAKRNTVIGTPFWMAPEVIQEIGYNCVADIWSLGITAIEMAEGKPPYADIHPMRAIFMIPTNPPPTFRKPELWSDNFTDFVKQCLVKSPEQRATATQLLQHPFVRSAKGVSILRDLINEAMDVKLKRQESQQREVDQDDEENSEEDEMD
In the case of B1, the binding result with HOIP (residues 854–1072) is recorded as “binds weakly”.

B2: STK4 (residues 1–326) K59R (domain or fragment, UniProt Q13043 1-326)
chain: METVQLRNPPRRQLKKLDEDSLTKQPEEVFDVLEKLGEGSYGSVYKAIHKETGQIVAIRQVPVESDLQEIIKEISIMQQCDSPHVVKYYGSYFKNTDLWIVMEYCGAGSVSDIIRLRNKTLTEDEIATILQSTLKGLEYLHFMRKIHRDIKAGNILLNTEGHAKLADFGVAGQLTDTMAKRNTVIGTPFWMAPEVIQEIGYNCVADIWSLGITAIEMAEGKPPYADIHPMRAIFMIPTNPPPTFRKPELWSDNFTDFVKQCLVKSPEQRATATQLLQHPFVRSAKGVSILRDLINEAMDVKLKRQESQQREVDQDDEENSEEDEMD
On to B2, for which the binding result with HOIP (residues 697–852) is on record as “no binding”. Turning to YEFLKSWTVEDLQKRLLALDPMMEQEIEEIRQKYQSKRQPILDAIEAK (domain or fragment, UniProt Q13043 433-480) [STK4 SARAH domain], the binding result with HOIP (residues 697–1072) was “no binding”.

The values are drawn from article PMC12441119.
